This is an account of results in PubChem BioAssay AID493014 (National Center for Advancing Translational Sciences (NCATS), 2011).

SMILES strings stand for the structures. Some of the results follow. These are further read-outs of the screen, such as a control signal, another cell line or another target. No call is given for them. The list favours compounds with an active or inconclusive main result. Potencies come from curve fits of mixed quality, noted in brackets.

A short description of this experiment: qHTS Assay to Find Inhibitors of Chronic Active B-Cell Receptor Signaling. Conditions: ABC-DLBCL IkBa-CBG/CBR reporter, luminescence ratio (green luciferase fused to IkBa over red control in TMD8 lymphoma cells), 4 h. Put shortly: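 Concentration-response series (up to 46 uM) were applied to TMD8 dual-reporter cells for 4 h at 37C with doxycycline. Green/red ratio, after filter-overlap correction, defined %Activity; red signal alone was normalised to basal cells and zero luminescence.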

Setting [1] is: measured here: CBR red luminescence, cell number.
Setting [2] is: measured here: IkBa-CBG green luminescence.

`CCOC(=O)C1=C(c2ccccc2)OC(N)=C(C#N)C1c1ccc(Cl)s1` (stereo not drawn): the AC50 under setting [1] was 2.82 µM [falling, full curve, poor fit]. For the molecule `CCCC(NC(=O)CCl)c1ccccc1` (stereo not drawn), the AC50 under setting [1] was 8.2 µM [falling, partial curve, poor fit]. Still for that read-out and setting: the value for `COc1ccc(C(c2c(C)n(C)n(-c3ccccc3)c2=O)c2c(C)n(C)n(-c3ccccc3)c2=O)cc1OC` was 0.501 µM [falling, partial curve, poor fit]. Same read-out and setting: next, `Cc1ccc(N(Cc2cc(=O)[nH]c3ccccc23)C(=O)C(C)C)c(C)c1`: 17.8 µM [falling, single point]; `CCOC(=O)c1[nH]c2ccc(OC)cc2c1C`: 3.16 µM [rising, full curve].

Regarding `COc1ccc(CN(Cc2ccc(C(=O)O)cc2)C(=S)Nc2ccc(C)cc2)cc1OC`, the AC50 under setting [1] is 20 µM [falling, single point].

As to `COC(=O)c1[nH]c2cc(OC)ccc2c1NC(=O)CCN1CCN(c2ccccc2)CC1`, under setting [1], the AC50 was 13 µM [rising, partial curve, poor fit].

On to `COc1ccc(C(c2c(O)nc[nH]c2=O)c2c(O)nc[nH]c2=O)cc1`, for which, under setting [1], the AC50 was 3.55 µM [rising, partial curve, poor fit]. Regarding `CC(C)(C)C1CCc2c(sc3c2C(=O)NC(c2ccco2)N3)C1` (stereo not drawn), the AC50 under setting [2] is 20.6 µM [rising, partial curve, poor fit]. Consider `CCC(C)N(C(=O)COC(=O)CSc1ccc(C)c(C)c1)C1CCS(=O)(=O)C1` (stereo not drawn), for which the concentration at half-maximal activity (AC50) under setting [1] is 0.00411 µM [rising, full curve, poor fit]. Turning to `CC(C)c1ccc(N2C(=O)/C(=C/N(C)C)SC2=S)cc1`, the AC50 under setting [1] is 7.08 µM [rising, partial curve]. Same read-out and setting: next, `COc1ccc(CN2CCCCC2C)cc1C` (stereo not drawn): 3.26 µM [rising, partial curve, poor fit]. As to `CCc1ccc2c(CN3CCc4ccccc43)cc(=O)oc2c1`, the AC50 runs as follows: under setting [1], 35.5 µM [rising, single point]; under setting [2], 22.4 µM [falling, single point].

Consider `Cc1cc(NC(=O)c2nn3cccnc3c2Cl)no1`, for which, under setting [1], the half-maximal activity concentration (AC50) was 0.517 µM [rising, partial curve, poor fit]. Consider `c1ccc2c(c1)Cn1c-2nc2ccccc21`, for which the AC50 under setting [1] is 29.1 µM [falling, single point]. With `CCC(C)OC(=O)C[N+](C)(C)CCOC1CC2CCC1(C)C2(C)C` (stereo not drawn), the half-maximal activity concentration (AC50) under setting [1] was 14.1 µM [falling, single point]. On the same count and under the same terms, next, `CCCC(=O)C1=C(O)C(C(=O)OC)C(C)(C)CC1=NCCc1ccc(OC)c(OC)c1` (stereo not drawn): 25.1 µM [rising, partial curve, poor fit]; `COc1cc(/C=C2/C(=O)N(c3ccc(C(=O)O)cc3)N=C2C)cc(OC)c1O`: 4.47 µM [falling, full curve]. Consider `Cc1[nH]c2ccc(OCc3ccccc3)cc2c1CCN1C(=O)OC(C)(C)C1(C)O` (stereo not drawn), for which the AC50 under setting [1] is 0.116 µM [rising, single point].

Regarding `CN(C(=O)c1cccc(Nc2ccc(-c3ccc4c(c3)OCCO4)nn2)c1)C1CCCCC1`, the AC50 under setting [1] is 14.6 µM [falling, partial curve]. For the molecule `CCOC(=O)c1c(C)[nH]c(C)c1C(=O)CSc1nc2ccccc2n1CCC#N`, the half-maximal activity concentration (AC50) under setting [1] is 0.092 µM [rising, full curve, poor fit]. Turning to `CC1=NNC(=O)C1CCC(=O)N/N=C(\C)c1ccc(Cl)cc1` (stereo not drawn), the AC50 under setting [1] was 5.62 µM [rising, single point]. On the same count and under the same terms, the value for `Cc1ccc(-c2ccc(/C=N/NC(=O)c3ccccc3O)o2)cc1` was 5.62 µM [falling, full curve]; that for `Cc1nonc1C(=O)N/N=C/c1ccc(O)cc1O` was 10 µM [falling, partial curve].

Consider `CC1CCCN(C(=S)Nc2ccc(F)cc2)C1` (stereo not drawn), for which the concentration at half-maximal activity (AC50) under setting [1] was 22.4 µM [rising, single point]. As to `O=C(N[C@@H]1c2ccccc2CC[C@@H]1OCc1ccccc1)c1ccc(-c2ccccc2)cc1`, the AC50 under setting [1] was 29.1 µM [rising, partial curve, poor fit].

For `CN1CCC(=C2c3ccccc3C=Cc3ccccc32)CC1`, the AC50 under setting [1] was 5.8 µM [falling, partial curve]. Take `COc1cccc(NC(=O)C(=O)c2cn(CC(=O)N3CCCC3)c3ccccc23)c1`: the AC50 under setting [1] is 0.355 µM [falling, full curve, poor fit]. Regarding `CC(=O)Oc1ccc(-c2ccc(C(=O)O)cc2)cc1`, under setting [1], the AC50 was 20.6 µM [falling, partial curve]. As for `COc1cc(NC(=O)c2cc(OC)c(OC)c(OC)c2)ccc1NC(=O)c1cccs1`, the AC50 under setting [1] is 6.31 µM [rising, single point].

In the case of `CC(C)(C)C(=O)COC(=O)c1cc2ccccc2cc1O`, the AC50 under setting [1] is 29.1 µM [rising, single point]. `Cc1ccccc1C(=O)N(CC(=O)Nc1sc(C)c(C)c1C(N)=O)C1CCCC1`: under setting [1], the AC50 was 0.562 µM [falling, partial curve, poor fit]. For `Cn1c(NC(=O)c2ccc(Br)o2)cc(=O)n(C)c1=O`, the concentration at half-maximal activity (AC50) under setting [1] was 1.46 µM [falling, partial curve, poor fit]. With `O=S(=O)(c1ccccc1)N1CCN(c2nc3ccccc3s2)CC1`, the AC50 under setting [1] was 29.1 µM [rising, single point]. `CC(=O)c1sc(-c2ccccc2)nc1C`: the half-maximal activity concentration (AC50) under setting [1] was 10 µM [rising, partial curve, poor fit]. For `COC(=O)/C(C#N)=C(/Nc1ccc(F)c(Cl)c1)C(F)(F)F`, the AC50 under setting [1] was 0.224 µM [rising, full curve, poor fit]. On the same count and under the same terms, the value for `OC1CCCN(c2c3c(nc4cc(-c5cccc(F)c5)nn24)CCCC3)C1` (stereo not drawn) was 5.62 µM [falling, single point]; that for `C(=N\Nc1ncnc2nc[nH]c12)/c1cccs1` was 22.4 µM [falling, single point]. In the case of `COc1ccc(F)cc1Cn1nc(C(=O)O)c2ccccc2c1=O`, the AC50 under setting [1] was 5.01 µM [falling, full curve].

Take `O=C(Nc1ccc(F)cc1)C(=O)C1C(=O)Nc2ccccc21` (stereo not drawn): the AC50 under setting [1] was 10 µM [falling, partial curve, poor fit]. With `COc1ccccc1N1CCN(C(=O)C2c3ccccc3Oc3ccccc32)CC1`, the AC50 reads like this: under setting [1], 2.82 µM [rising, full curve]; under setting [2], 11.2 µM [falling, partial curve].
